{"source": "PubChem BioAssay AID1347423", "about": "(Functional Genomics Laboratory (NCATS/FGL), 2020)", "note": "Hit rate of the full screen: of about 52,000 sequences, about 210 (0.4%) were called active.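 Rule for the calls: active = gene whose silencing raises cell survival under the drug, median off-target-corrected z-score across its silencing RNAs 2 or more; inactive = the rest.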 This is one part of the list.", "data": [{"assay": "Resistance to Poly (ADP-Ribose) Polymerase inhibitor: Gene Identification via Genome-wide siRNA Screen", "settings": "mouse BRCA2 R2336H ES cells, olaparib, CellTiter-Glo viability; stronger effect = higher value", "procedure,_shortened": "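Mouse BRCA2 R2336H ES cells were reverse-transfected with siRNA (20 nM final), treated at 48 h with 500 nM olaparib, and read by CellTiter-Glo after 72 h. Scores: MAD-based z per siRNA, median per gene, seed off-target correction.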", "values": [{"sequence": "GGACAAUCCAUAAGUUAAATT against A930041I02Rik", "z-score": "inactive: -0.369"}, {"sequence": "CCCAUACAGUGUGGUAUUUTT against 5730472N09Rik", "z-score": "inactive: -0.508"}, {"sequence": "GCGACAGUCCAACUUUUAATT against Allc", "z-score": "inactive: 0.941"}, {"sequence": "GCACUCGGAUCAAUGCACATT against G630055P03Rik", "z-score": "inactive: -0.63"}, {"sequence": "GGGUUAAGUACAGAAGAUCTT against Cask", "z-score": "inactive: -1.62"}, {"sequence": "GCACAAUUAUGAGAGUGCATT against Grin1", "z-score": "inactive: -0.652"}, {"sequence": "GGUUUUGGAGAGAAUUGCCTT against Cog2", "z-score": "inactive: -2.06"}, {"sequence": "GGCCCACAGUUUGUGACUGTT against D3Wsu161e", "z-score": "inactive: -0.826"}, {"sequence": "UCUCCUUCAUUCCAUGUAUTT against Olfr441", "z-score": "inactive: -1.04"}, {"sequence": "GGCACAGAAAACAGUCAAATT against 1190005F20Rik", "z-score": "inactive: -0.572"}, {"sequence": "GGACUUAUCGGUUAUCUUUTT against Nap1l2", "z-score": "inactive: 0.654"}, {"sequence": "CCAGUUGUGUGCAGUACAGTT against 1700019G17Rik", "z-score": "inactive: 0.232"}, {"sequence": "CCUGUUCUCUCACCAUCAUTT against Olfr1026", "z-score": "inactive: -1.6"}, {"sequence": "GGGCACCACAGAAAGGAAUTT against Olfr376", "z-score": "inactive: -0.844"}, {"sequence": "GCUGUUGUGUGAGGUAACCTT against Lag3", "z-score": "inactive: -0.206"}, {"sequence": "GCCGAUGAUACCAAACCGATT against 3230401D17Rik", "z-score": "inactive: 2.44"}, {"sequence": "GGGUCAUCCUCUAUGCAGUTT against Taar6", "z-score": "inactive: 1.9"}, {"sequence": "CCGUCACUAUACCCAAGUUTT against Olfr802", "z-score": "inactive: -3.11"}, {"sequence": "CGUUCCAAAUUAGACUUGUTT against Gm631", "z-score": "inactive: 1.38"}, {"sequence": "GCAACGUAACAUUACUAUCTT against Lgr8", "z-score": "inactive: 1.89"}, {"sequence": "GGUGUUUCCGUUGUAAAAATT against Tuba6", "z-score": "inactive: -0.219"}, {"sequence": "GAUAAUUGGUUUACAGACUTT against V1rc24", "z-score": "inactive: 0.959"}, {"sequence": "CCUGCUCAAACUUUUGUGGTT against Gm1382", "z-score": "inactive: 0.598"}, {"sequence": "GAAUCUUAGGAAGAUGACATT against 2310040M23Rik", "z-score": "inactive: -0.934"}, {"sequence": "GGACUUGGAAUAUGGACCATT against Mds1", "z-score": "inactive: 0.1"}, {"sequence": "GGUCCAGAUCAGUUGACAGTT against Sfrs5", "z-score": "inactive: -2.84"}, {"sequence": "GGGAACAGAAGUUGUGAGATT against Gulp1", "z-score": "inactive: -0.203"}, {"sequence": "GGAUCUGUACAAGACUUAUTT against Olfr800", "z-score": "inactive: -0.945"}, {"sequence": "GGGUUCUCUUGAGUUACAGTT against 6330516O17Rik", "z-score": "inactive: -1.13"}, {"sequence": "GGUCUUGGACUUGUAUUACTT against Pcdha4", "z-score": "inactive: 0.336"}, {"sequence": "GCCCAUUAUUUUCGGACUGTT against Olfr845", "z-score": "inactive: -2.22"}, {"sequence": "GGGUGCAGUGGAGUCUAUUTT against Smc1l1", "z-score": "inactive: -2.68"}, {"sequence": "CCGAUAAUGCUUUCUUUGGTT against Ppp1cc", "z-score": "inactive: 0.506"}, {"sequence": "GGUGGCUGUACUUUUGAUGTT against Ptprk", "z-score": "inactive: 0.515"}, {"sequence": "GCUACAGUAGUAAGACUAATT against Usp53", "z-score": "inactive: -1.83"}, {"sequence": "CGGAAAUCGGCAAGCUUCUTT against Dtymk", "z-score": "inactive: 1.51"}, {"sequence": "GGAGAUAAUUGGUUUACAGTT against V1rc24", "z-score": "inactive: 1.29"}, {"sequence": "CCGCGUAGUGGAUACAUUUTT against Ap3m2", "z-score": "inactive: -0.882"}, {"sequence": "GGAAGUACUCUGAAGAUUCTT against Jarid1b", "z-score": "inactive: 0.476"}, {"sequence": "GGGCAUGAAAGAAUUCUUATT against D130040H23Rik", "z-score": "inactive: -0.304"}, {"sequence": "GGCCAUGAAGGAAUAUGAATT against Cdc37", "z-score": "inactive: 0.231"}, {"sequence": "GGGCAUUUGCUGUAAAUUATT against Hace1", "z-score": "inactive: 0.61"}, {"sequence": "GGCAACAAUGAGAGAAGAATT against Scye1", "z-score": "inactive: -1.25"}, {"sequence": "GGAUCAUGGUCAUCACUGUTT against 6030458H05", "z-score": "inactive: 0.0686"}, {"sequence": "GGAAGAGGAUGAGUUAGGGTT against Ppp1r1b", "z-score": "inactive: 0.393"}, {"sequence": "GCUGUUGAAAGCCUUCUGGTT against 2310040M23Rik", "z-score": "inactive: 0.963"}, {"sequence": "GGGUGUUCCAGAAGUAUCUTT against Lars2", "z-score": "inactive: -0.99"}, {"sequence": "GCUUUUAGAAUAAAGCUGATT against Fgl2", "z-score": "inactive: -0.121"}, {"sequence": "GGAAAGAAAAGCCUUAGAATT against A530083I02Rik", "z-score": "inactive: -0.538"}, {"sequence": "GGAAUCUCAGCCUUGAAAGTT against 0710008K08Rik", "z-score": "inactive: 0.111"}, {"sequence": "CCACUGAAGGAAGUUCGCUTT against 2600011E07Rik", "z-score": "inactive: -1.18"}, {"sequence": "UCCUGGAGAUUUGACCGAGTT against 1700011J10Rik", "z-score": "inactive: 0.173"}, {"sequence": "GGAAAACAAGAAAGAUGAATT against Rnut1", "z-score": "inactive: -0.538"}, {"sequence": "UCAGGAUACAAUCAUCGCCTT against Olfr101", "z-score": "inactive: -0.636"}, {"sequence": "GGCAAUGAGACAAUUGUCATT against Cpe", "z-score": "inactive: -0.483"}, {"sequence": "GGUACCUGAGGUAGAAAAGTT against Pnma3", "z-score": "inactive: -0.877"}, {"sequence": "CCGCUCUUUUACAGCUGGATT against 2410005K20Rik", "z-score": "inactive: -0.827"}, {"sequence": "CCACAUUUGGAACCUACGATT against 1200008A14Rik", "z-score": "inactive: 0.645"}, {"sequence": "GGUUCGAGUUUCAUACUAUTT against Padi4", "z-score": "inactive: -0.128"}, {"sequence": "GGAGAUCACUAUGUUCUGATT against Ivd", "z-score": "inactive: -0.0574"}, {"sequence": "GGAGACAGUUCAGAAGUGGTT against Glp2r", "z-score": "inactive: 1.48"}, {"sequence": "CGAUAUUUAUCAUGAGUGCTT against Nalp9c", "z-score": "inactive: 0.724"}, {"sequence": "GGCAAUGAUUAAAGGAAAATT against Olfr1436", "z-score": "inactive: -0.106"}, {"sequence": "CCUAAAACUCCUCUAUCUUTT against 4933403H06Rik", "z-score": "inactive: 0.255"}, {"sequence": "GGGUUUACUUCUCAGACAGTT against Gtl3", "z-score": "inactive: -0.908"}, {"sequence": "CCAUUAUUCUAGUGUCCUATT against Olfr1368", "z-score": "inactive: 0.449"}]}]}
